For some assays here: Most of the strong results are listed elsewhere, so they are rarer here than in the full data. How the calls were made is not given here. Only a part is listed here, and it is no random draw.
Experiments:
[1] = molecular target: Protein kinase C zeta type (Homo sapiens) (UniProt Q05513); conditions: at 1 µM
[2] = molecular target: Mitogen-activated protein kinase kinase kinase 5 (Homo sapiens) (UniProt Q99683); conditions: at 10 µM
[3] = molecular target: Tyrosine-protein kinase ABL1 (Homo sapiens) (UniProt P00519); conditions: at 1 µM
[4] = molecular target: Tyrosine-protein kinase ABL1 (Homo sapiens) (UniProt P00519); conditions: at 10 µM
[5] = molecular target: Tyrosine-protein kinase ABL2 (Homo sapiens) (UniProt P42684); conditions: at 1 µM
[6] = molecular target: Tyrosine-protein kinase ABL2 (Homo sapiens) (UniProt P42684); conditions: at 10 µM
[7] = molecular target: Aurora kinase A (Homo sapiens) (UniProt O14965); conditions: at 1 µM
[8] = molecular target: Aurora kinase A (Homo sapiens) (UniProt O14965); conditions: at 10 µM
[9] = molecular target: Aurora kinase B (Homo sapiens) (UniProt Q96GD4); conditions: at 1 µM
[10] = molecular target: Aurora kinase B (Homo sapiens) (UniProt Q96GD4); conditions: at 10 µM
[11] = molecular target: Aurora kinase C (Homo sapiens) (UniProt Q9UQB9); conditions: at 1 µM
[12] = molecular target: Aurora kinase C (Homo sapiens) (UniProt Q9UQB9); conditions: at 10 µM
[13] = molecular target: Tyrosine-protein kinase receptor UFO (Homo sapiens) (UniProt P30530); conditions: at 1 µM
[14] = molecular target: Tyrosine-protein kinase receptor UFO (Homo sapiens) (UniProt P30530); conditions: at 10 µM
[15] = molecular target: Protein-tyrosine kinase 6 (Homo sapiens) (UniProt Q13882); conditions: at 1 µM
[16] = molecular target: Protein-tyrosine kinase 6 (Homo sapiens) (UniProt Q13882); conditions: at 10 µM
[17] = molecular target: Tyrosine-protein kinase BTK (Homo sapiens) (UniProt Q06187); conditions: at 1 µM
[18] = molecular target: Tyrosine-protein kinase BTK (Homo sapiens) (UniProt Q06187); conditions: at 10 µM
[19] = molecular target: Tyrosine-protein kinase Blk (Homo sapiens) (UniProt P51451); conditions: at 1 µM
[20] = molecular target: Tyrosine-protein kinase Blk (Homo sapiens) (UniProt P51451); conditions: at 10 µM
[21] = molecular target: Serine/threonine-protein kinase BRSK1 (Homo sapiens) (UniProt Q8TDC3); conditions: at 1 µM
[22] = molecular target: Serine/threonine-protein kinase BRSK1 (Homo sapiens) (UniProt Q8TDC3); conditions: at 10 µM
[23] = molecular target: Serine/threonine-protein kinase BRSK2 (Homo sapiens) (UniProt Q8IWQ3); conditions: at 1 µM
[24] = molecular target: Serine/threonine-protein kinase BRSK2 (Homo sapiens) (UniProt Q8IWQ3); conditions: at 10 µM
[25] = molecular target: T1, Cyclin-dependent kinase 1/cyclin B1 (Homo sapiens) (UniProt P06493+P14635); conditions: at 1 µM
[26] = molecular target: T1, Cyclin-dependent kinase 1/cyclin B1 (Homo sapiens); conditions: at 10 µM
[27] = molecular target: T2, Cyclin-dependent kinase 2/cyclin A (Homo sapiens) (UniProt P24941+P20248+P78396); conditions: at 1 µM
[28] = molecular target: T2, Cyclin-dependent kinase 2/cyclin A (Homo sapiens); conditions: at 10 µM
[29] = molecular target: T3, Cyclin-dependent kinase 2/cyclin E (Homo sapiens) (UniProt P24864+P24941+O96020); conditions: at 1 µM
[30] = molecular target: T3, Cyclin-dependent kinase 2/cyclin E (Homo sapiens); conditions: at 10 µM
[31] = molecular target: T4, CDK3/cyclin E (Homo sapiens) (UniProt P24864+O96020+Q00526); conditions: at 1 µM
[32] = molecular target: T4, CDK3/cyclin E (Homo sapiens); conditions: at 10 µM
[33] = molecular target: T5, Cyclin-dependent kinase 5/CDK5 activator 1 (Homo sapiens) (UniProt Q00535+Q15078); conditions: at 1 µM
[34] = molecular target: T5, Cyclin-dependent kinase 5/CDK5 activator 1 (Homo sapiens); conditions: at 10 µM
[35] = molecular target: T5, Cyclin-dependent kinase 5/CDK5 activator 1 (Homo sapiens); conditions: at 1 µM; remark: listed apart in the source
[36] = molecular target: T5, Cyclin-dependent kinase 5/CDK5 activator 1 (Homo sapiens); conditions: at 10 µM; remark: listed apart in the source
[37] = molecular target: T6, CDK6/cyclin D3 (Homo sapiens) (UniProt P30281+Q00534); conditions: at 1 µM
[38] = molecular target: T6, CDK6/cyclin D3 (Homo sapiens); conditions: at 10 µM
[39] = molecular target: T7, Cyclin-dependent kinase 7/ cyclin H (Homo sapiens) (UniProt P51946+P50613); conditions: at 1 µM
[40] = molecular target: T7, Cyclin-dependent kinase 7/ cyclin H (Homo sapiens); conditions: at 10 µM
[41] = molecular target: T8, CDK9/cyclin T1 (Homo sapiens) (UniProt O60563+P50750); conditions: at 1 µM
[42] = molecular target: T8, CDK9/cyclin T1 (Homo sapiens); conditions: at 10 µM
[43] = molecular target: Serine/threonine-protein kinase Chk1 (Homo sapiens) (UniProt O14757); conditions: at 1 µM
[44] = molecular target: Serine/threonine-protein kinase Chk1 (Homo sapiens) (UniProt O14757); conditions: at 10 µM
[45] = molecular target: Serine/threonine-protein kinase Chk2 (Homo sapiens) (UniProt O96017); conditions: at 1 µM
[46] = molecular target: Serine/threonine-protein kinase Chk2 (Homo sapiens) (UniProt O96017); conditions: at 10 µM
[47] = molecular target: Casein kinase I isoform gamma-1 (Homo sapiens) (UniProt Q9HCP0); conditions: at 1 µM
[48] = molecular target: Casein kinase I isoform gamma-1 (Homo sapiens) (UniProt Q9HCP0); conditions: at 10 µM
[49] = molecular target: Casein kinase I isoform delta (Homo sapiens) (UniProt P48730); conditions: at 1 µM
[50] = molecular target: Casein kinase I isoform delta (Homo sapiens) (UniProt P48730); conditions: at 10 µM
[51] = molecular target: T9, Casein kinase II (Homo sapiens) (UniProt P67870+P68400+P19784); conditions: at 1 µM
[52] = molecular target: T9, Casein kinase II (Homo sapiens); conditions: at 10 µM
[53] = molecular target: Casein kinase II subunit alpha' (Homo sapiens) (UniProt P19784); conditions: at 1 µM
[54] = molecular target: Casein kinase II subunit alpha' (Homo sapiens) (UniProt P19784); conditions: at 10 µM
[55] = molecular target: Dual specificity protein kinase CLK2 (Homo sapiens) (UniProt P49760); conditions: at 1 µM
[56] = molecular target: Dual specificity protein kinase CLK2 (Homo sapiens) (UniProt P49760); conditions: at 10 µM

Amino acid sequences for entries named in this document (tags omitted). A change or cut given only in a name is not applied to a line headed by its entry.
UniProt P00519, whole entry: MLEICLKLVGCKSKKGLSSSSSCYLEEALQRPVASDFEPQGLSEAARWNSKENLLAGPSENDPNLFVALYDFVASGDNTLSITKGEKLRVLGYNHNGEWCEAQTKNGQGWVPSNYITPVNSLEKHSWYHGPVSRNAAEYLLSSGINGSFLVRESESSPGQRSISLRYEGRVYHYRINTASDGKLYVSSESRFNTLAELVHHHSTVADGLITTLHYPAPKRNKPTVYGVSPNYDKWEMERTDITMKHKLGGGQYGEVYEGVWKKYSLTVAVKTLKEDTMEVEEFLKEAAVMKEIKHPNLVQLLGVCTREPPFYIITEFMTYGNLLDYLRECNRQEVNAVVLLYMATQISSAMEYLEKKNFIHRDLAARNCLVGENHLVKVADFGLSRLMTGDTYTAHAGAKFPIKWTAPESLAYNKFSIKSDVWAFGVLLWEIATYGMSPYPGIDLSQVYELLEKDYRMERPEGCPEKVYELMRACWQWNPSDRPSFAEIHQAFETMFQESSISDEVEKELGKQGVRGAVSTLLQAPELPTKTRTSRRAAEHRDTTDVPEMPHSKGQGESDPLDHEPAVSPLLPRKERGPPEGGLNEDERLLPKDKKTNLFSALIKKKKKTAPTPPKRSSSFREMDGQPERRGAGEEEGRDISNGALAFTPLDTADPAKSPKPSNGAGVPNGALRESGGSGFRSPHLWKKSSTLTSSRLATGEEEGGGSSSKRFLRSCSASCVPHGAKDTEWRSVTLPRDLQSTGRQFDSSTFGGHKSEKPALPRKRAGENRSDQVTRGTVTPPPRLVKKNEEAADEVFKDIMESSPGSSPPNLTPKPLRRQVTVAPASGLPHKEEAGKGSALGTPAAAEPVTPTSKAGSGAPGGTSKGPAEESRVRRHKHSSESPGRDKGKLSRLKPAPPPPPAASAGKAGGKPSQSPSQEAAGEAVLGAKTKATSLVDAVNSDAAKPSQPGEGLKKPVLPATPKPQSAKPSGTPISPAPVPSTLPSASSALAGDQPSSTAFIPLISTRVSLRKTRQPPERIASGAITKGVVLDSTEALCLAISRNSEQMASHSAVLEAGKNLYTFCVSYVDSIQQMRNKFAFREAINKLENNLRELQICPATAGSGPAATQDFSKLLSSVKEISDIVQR
UniProt O14965: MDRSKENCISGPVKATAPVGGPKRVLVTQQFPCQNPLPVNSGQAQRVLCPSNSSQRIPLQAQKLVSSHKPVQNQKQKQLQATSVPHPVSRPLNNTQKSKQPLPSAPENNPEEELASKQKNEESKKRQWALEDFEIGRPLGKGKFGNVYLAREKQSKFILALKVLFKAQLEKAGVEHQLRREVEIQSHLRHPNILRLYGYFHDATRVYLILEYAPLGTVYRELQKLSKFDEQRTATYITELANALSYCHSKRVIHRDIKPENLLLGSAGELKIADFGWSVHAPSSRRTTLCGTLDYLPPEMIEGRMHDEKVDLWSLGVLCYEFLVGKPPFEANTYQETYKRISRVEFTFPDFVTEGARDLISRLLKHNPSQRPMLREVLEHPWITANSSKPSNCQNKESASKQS
UniProt Q06187: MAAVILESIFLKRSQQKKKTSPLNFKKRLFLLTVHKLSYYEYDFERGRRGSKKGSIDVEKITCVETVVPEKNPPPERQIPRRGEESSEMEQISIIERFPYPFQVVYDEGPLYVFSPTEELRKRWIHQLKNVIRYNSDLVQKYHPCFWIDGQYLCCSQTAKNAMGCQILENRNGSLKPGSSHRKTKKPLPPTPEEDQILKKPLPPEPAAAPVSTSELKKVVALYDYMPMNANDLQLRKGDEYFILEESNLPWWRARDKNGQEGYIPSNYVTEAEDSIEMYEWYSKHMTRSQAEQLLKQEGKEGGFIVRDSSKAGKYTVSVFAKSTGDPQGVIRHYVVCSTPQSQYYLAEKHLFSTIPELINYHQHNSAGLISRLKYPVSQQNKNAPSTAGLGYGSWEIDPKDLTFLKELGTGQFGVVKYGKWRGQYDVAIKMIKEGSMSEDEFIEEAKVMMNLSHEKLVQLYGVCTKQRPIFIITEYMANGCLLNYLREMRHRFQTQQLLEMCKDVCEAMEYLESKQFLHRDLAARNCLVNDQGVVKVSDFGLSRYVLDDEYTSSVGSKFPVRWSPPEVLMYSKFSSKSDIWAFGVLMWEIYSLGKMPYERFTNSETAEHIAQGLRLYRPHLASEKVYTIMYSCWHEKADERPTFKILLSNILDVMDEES
UniProt Q8TDC3: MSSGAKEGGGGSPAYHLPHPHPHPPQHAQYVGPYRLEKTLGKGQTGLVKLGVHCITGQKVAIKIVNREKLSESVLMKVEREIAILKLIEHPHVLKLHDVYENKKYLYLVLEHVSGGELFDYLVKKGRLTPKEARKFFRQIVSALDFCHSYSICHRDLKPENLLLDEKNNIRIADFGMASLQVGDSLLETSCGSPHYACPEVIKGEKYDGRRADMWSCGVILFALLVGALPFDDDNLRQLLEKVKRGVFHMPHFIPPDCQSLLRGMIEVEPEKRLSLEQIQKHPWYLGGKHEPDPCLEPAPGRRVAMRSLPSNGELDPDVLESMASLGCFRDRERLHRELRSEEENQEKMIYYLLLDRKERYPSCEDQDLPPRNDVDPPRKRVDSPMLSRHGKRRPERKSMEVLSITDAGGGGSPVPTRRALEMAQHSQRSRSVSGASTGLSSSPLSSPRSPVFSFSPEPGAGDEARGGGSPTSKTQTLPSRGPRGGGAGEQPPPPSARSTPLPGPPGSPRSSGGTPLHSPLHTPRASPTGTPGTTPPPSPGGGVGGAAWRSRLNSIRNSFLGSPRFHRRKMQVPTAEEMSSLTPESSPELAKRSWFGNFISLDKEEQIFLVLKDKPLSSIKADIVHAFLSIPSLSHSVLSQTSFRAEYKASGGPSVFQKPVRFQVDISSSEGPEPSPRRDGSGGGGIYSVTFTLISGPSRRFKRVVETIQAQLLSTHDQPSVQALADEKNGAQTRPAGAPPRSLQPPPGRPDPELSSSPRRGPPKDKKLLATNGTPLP
UniProt Q8IWQ3: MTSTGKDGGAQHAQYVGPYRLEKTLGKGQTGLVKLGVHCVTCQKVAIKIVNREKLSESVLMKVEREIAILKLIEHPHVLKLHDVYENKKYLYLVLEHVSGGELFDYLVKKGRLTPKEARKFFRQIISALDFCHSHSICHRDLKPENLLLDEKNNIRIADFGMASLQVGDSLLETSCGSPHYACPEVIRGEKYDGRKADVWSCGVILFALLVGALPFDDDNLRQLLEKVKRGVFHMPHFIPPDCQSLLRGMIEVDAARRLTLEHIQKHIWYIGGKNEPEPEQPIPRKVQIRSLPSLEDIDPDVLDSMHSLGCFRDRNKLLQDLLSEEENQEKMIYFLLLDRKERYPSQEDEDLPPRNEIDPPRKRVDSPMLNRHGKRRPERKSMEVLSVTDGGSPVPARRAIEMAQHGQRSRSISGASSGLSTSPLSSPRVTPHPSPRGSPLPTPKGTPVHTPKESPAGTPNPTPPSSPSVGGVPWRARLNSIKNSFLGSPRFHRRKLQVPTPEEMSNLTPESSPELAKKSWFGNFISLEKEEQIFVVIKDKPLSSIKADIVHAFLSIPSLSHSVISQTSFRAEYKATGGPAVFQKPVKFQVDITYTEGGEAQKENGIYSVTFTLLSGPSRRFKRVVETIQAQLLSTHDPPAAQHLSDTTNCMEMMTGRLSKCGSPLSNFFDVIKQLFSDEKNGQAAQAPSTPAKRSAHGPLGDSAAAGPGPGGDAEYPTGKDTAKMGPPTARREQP
UniProt P78396: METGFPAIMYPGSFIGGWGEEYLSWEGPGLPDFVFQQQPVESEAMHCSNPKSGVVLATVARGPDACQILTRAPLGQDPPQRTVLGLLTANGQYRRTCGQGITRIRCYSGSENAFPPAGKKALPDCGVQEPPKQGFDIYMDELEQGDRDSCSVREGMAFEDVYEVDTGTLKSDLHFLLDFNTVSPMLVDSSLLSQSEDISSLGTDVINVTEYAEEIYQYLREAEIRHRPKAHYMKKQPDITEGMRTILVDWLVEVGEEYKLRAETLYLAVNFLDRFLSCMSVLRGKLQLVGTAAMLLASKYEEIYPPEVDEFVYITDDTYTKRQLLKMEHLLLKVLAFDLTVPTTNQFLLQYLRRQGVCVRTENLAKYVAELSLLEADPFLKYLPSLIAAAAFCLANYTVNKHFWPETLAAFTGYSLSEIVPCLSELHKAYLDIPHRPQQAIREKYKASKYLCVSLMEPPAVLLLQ
UniProt P24864, whole entry, looked up: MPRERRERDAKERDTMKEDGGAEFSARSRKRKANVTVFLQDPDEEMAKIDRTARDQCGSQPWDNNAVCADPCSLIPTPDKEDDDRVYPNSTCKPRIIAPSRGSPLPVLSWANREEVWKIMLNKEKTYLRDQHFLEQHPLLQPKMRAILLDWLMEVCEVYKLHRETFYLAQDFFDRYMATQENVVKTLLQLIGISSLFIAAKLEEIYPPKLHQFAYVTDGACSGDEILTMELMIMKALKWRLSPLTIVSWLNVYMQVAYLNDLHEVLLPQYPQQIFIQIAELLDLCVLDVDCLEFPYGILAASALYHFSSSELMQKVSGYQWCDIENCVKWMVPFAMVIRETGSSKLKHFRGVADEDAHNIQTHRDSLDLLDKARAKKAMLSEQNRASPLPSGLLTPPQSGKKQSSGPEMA
UniProt Q00535, whole entry, looked up: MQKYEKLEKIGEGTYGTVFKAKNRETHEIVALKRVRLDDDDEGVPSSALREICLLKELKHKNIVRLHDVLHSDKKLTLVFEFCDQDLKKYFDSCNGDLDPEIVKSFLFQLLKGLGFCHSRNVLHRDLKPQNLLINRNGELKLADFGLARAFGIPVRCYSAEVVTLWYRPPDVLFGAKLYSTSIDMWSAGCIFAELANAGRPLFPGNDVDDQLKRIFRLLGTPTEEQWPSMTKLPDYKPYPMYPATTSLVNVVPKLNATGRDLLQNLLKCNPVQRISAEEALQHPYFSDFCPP
UniProt P30281: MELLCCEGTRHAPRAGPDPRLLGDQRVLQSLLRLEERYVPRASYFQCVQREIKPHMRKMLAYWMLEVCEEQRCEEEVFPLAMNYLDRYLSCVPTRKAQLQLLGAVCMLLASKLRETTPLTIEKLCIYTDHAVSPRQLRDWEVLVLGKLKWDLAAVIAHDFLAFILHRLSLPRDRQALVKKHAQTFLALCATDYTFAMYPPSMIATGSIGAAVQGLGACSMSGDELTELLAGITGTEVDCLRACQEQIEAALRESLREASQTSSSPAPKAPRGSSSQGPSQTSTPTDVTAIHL
UniProt P51946: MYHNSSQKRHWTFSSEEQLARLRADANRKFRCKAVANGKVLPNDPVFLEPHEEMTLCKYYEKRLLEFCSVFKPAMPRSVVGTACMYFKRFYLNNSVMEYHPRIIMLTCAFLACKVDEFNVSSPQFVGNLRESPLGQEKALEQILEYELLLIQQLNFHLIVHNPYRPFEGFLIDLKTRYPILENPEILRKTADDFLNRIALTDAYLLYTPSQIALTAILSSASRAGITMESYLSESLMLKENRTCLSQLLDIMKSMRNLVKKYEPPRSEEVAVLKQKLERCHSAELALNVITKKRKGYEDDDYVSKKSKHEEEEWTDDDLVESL
UniProt P50613: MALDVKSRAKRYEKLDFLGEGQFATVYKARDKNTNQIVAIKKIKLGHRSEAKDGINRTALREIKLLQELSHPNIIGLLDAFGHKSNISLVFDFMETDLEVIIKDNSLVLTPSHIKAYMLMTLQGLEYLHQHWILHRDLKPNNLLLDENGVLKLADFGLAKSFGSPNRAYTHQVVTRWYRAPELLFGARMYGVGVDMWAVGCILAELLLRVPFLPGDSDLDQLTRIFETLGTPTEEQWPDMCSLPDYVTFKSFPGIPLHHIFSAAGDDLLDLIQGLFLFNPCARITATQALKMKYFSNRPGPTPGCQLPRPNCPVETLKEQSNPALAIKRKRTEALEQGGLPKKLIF
UniProt P48730: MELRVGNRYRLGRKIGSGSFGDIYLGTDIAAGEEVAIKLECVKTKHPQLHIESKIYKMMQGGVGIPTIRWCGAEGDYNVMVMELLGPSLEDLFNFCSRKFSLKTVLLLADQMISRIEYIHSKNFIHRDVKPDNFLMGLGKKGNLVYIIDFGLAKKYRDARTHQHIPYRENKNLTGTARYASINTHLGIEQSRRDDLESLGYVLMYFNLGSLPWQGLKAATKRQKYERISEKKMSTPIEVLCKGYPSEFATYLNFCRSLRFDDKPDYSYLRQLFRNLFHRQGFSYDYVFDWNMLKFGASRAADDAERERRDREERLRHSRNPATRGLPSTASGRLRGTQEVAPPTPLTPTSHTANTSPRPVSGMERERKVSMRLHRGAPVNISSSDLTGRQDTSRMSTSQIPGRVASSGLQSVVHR
UniProt P19784, whole entry, looked up: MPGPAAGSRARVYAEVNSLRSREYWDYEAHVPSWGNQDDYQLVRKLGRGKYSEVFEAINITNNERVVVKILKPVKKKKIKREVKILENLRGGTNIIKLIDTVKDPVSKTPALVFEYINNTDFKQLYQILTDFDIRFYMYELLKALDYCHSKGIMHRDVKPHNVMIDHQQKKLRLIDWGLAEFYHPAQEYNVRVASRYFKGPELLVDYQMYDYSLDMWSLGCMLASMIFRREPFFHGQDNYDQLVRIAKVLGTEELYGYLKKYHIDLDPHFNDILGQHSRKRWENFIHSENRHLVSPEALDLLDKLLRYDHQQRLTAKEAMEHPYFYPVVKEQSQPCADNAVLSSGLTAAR

O=C1Nc2ccc(-c3cccnc3)cc2/C1=C\c1ccc[nH]1
residual activity [1]: inactive: 91%
residual activity [2]: 20%
residual activity [3]: 39%
residual activity [4]: 3%
residual activity [5]: 59%
residual activity [6]: 11%
residual activity [7]: 4%
residual activity [8]: 0%
residual activity [9]: 4%
residual activity [10]: 4%
residual activity [11]: 53%
residual activity [12]: 6%
residual activity [13]: 8%
residual activity [14]: -1%
residual activity [15]: 85%
residual activity [16]: 40%
residual activity [17]: 90%
residual activity [18]: 54%
residual activity [19]: 12%
residual activity [20]: 2%
residual activity [21]: 1%
residual activity [22]: 2%
residual activity [23]: 10%
residual activity [24]: 1%
residual activity [25]: 1%
residual activity [26]: 0%
residual activity [27]: 1%
residual activity [28]: 0%
residual activity [29]: 6%
residual activity [30]: 1%
residual activity [31]: 10%
residual activity [32]: 1%
residual activity [33]: 1%
residual activity [34]: 0%
residual activity [35]: 1%
residual activity [36]: 0%
residual activity [37]: 22%
residual activity [38]: 6%
residual activity [39]: 41%
residual activity [40]: 9%
residual activity [41]: 12%
residual activity [42]: 3%
residual activity [43]: 10%
residual activity [44]: 3%
residual activity [45]: 24%
residual activity [46]: 4%
residual activity [47]: 90%
residual activity [48]: 47%
residual activity [49]: 73%
residual activity [50]: 26%
residual activity [51]: 69%
residual activity [52]: 79%
residual activity [53]: 105%
residual activity [54]: 36%
residual activity [55]: 1%
residual activity [56]: 1%
